Measured values published in patent US11420922B2, “Hydroxylated tropolone inhibitors of nucleotidyl transferases in herpesvirus and Hepatitis B and uses therefor” (Saint Louis University, priority 2015, dated 2022).
For part of these data: At least one structure is not confirmed: it was looked up by name or label, or the drawing left a doubt. Some results were stated once for a whole list of compounds, not compound by compound.

How the values were obtained:
[1] = test system: HBV RNaseH; assay: Biochemical inhibition of HBV RNaseH (oligonucleotide-directed RNA cleavage assay); parameters: species or system Hepatitis B virus; key to the marks not given beside the values; conditions: HBV RNase H enzyme; compounds at 60, 20, or 10 μM; key to symbols not given
[2] = test system: HSV-2; assay: Anti-HSV-2 replication assay in Vero cells, titers by plaque assay; format: cell-based, herpes simplex virus 2; conditions: 5 μM, FIG. 2

Structure (SMILES) | Anti-HBV [1] | suppression of replication of three primary clinical isolates of HSV-2 [2] [log10]
Cc1cc(O)c(=O)c(O)cc1-c1ccccc1 [Compound 113] | ++ | 
Cc1cc(O)c(=O)c(O)cc1C(=O)c1ccc(-c2ccccc2)cc1 [Compound 118] |  | > 4.7
COC(=O)c1c(C)cc(O)c(=O)c(O)c1O [Compound 196] |  | > 4.7
